Results are given in words; binding and its absence hold for the method and conditions named. In cells and extracts the contact can be indirect. These calls come from enrichment with a bait or labelling near it, and not all partners need be listed. For some assays here: No binding means not detected with the bait.

Chains of the proteins cited; added tags and fusions are not shown. Lines headed by an entry give the natural chain unless they say otherwise; changes in a name come on top.
UniProt Q54DE4: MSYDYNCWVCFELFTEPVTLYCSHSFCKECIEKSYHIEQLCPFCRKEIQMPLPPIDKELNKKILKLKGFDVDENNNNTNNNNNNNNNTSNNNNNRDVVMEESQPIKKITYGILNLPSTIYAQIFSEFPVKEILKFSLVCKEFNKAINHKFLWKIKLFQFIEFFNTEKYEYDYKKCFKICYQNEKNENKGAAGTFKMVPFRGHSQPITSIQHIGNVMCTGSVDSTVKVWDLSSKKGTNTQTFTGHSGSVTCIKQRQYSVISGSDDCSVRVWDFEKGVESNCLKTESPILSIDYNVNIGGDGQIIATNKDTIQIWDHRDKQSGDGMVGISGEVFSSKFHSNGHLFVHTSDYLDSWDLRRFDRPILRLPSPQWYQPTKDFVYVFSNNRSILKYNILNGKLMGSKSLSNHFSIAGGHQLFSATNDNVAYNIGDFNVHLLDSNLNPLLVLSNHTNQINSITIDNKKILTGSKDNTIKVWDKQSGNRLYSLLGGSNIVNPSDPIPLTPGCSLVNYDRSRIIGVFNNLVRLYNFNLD
UniProt P52285: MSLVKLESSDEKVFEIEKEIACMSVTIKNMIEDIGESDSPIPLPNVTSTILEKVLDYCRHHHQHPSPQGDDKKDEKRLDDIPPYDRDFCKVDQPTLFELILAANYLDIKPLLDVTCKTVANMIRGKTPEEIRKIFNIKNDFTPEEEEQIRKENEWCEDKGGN

Assay [1] deals with FbxwD-FLAG3 (Dictyostelium discoideum) (UniProt Q54DE4). Description: affinity purification with mass spectrometry; anti-FLAG mAb M2 magnetic beads, 1 h at 4°C, from vegetative stage cells of endogenously tagged FbxwD strains lysed in 250 mM NaCl, 50 mM Tris-HCl pH 8.0, 0.2% NP-40; eluted at high pH, nLC MS/MS; compared with untagged Ax3; FLAG3 and FLAG3UBA2 strains treated as biological replicates.

Assay [2] shares this target. Description: affinity purification with mass spectrometry; as a1 but from slug cells.
The target in assay [3] is FLAG3Vwa2 (Dictyostelium discoideum). Description: affinity purification with mass spectrometry; anti-FLAG co-IPs with overexpressed FLAG3Vwa2, 0.2% NP-40 lysate; stage of the cells not given.
Assay [4] deals with Vwa2-FLAG3 (Dictyostelium discoideum). Description: affinity purification with mass spectrometry; anti-FLAG co-IPs from strains expressing native levels of Vwa1-FLAG3 or Vwa2-FLAG3.

On to Skp1 (from UniProt P52285), for which the binding entry in assay [1] and in assay [2] was “binds” each time.

B1: CulE (protein, UniProt Q54XF7 1-750)
chain: MSDQITVDELWAECEQTFEDLFLNLKKGLSRKRYMEIYTKIYNYCSSANEKALIDFYIPKVKVLVAQKAVEIMSRSESYPNDALLLFFRNQWNEWKMSSNVLKNLLSPVNKIHSSDKKTTSSSANQNESVVYSDTLNSWRETAFNPLKNKLSVSLLQIIKNDRTGFSTNLQVLSDSLECYVQLGPEKNKLEIYQSCFEQQFLQETETFYKAESADFIEKNGVCEYMRHVYNRIEQETNRVNQYMPISTLEKLTKILNNVLISNYKEQFASKFLDILIEDKSSDLVMMYSLLSRVNHLTPLKNIFSDFIKSEGLKEIESNLKEAQEKPQVLISILLKIYSRFNIMIKECYGNDTDFTTAMDKSFSILVNENPASYDPKKKESNIPVVLSKFCDQILRKGPHHISDEAELEKKLTEAVCLFKYLPDKDIFMLNYQKMLSKRLVEDLSASEDAETLMINKLKNYQGFDYCTKLTRMITDMRLCKDININFQNHLNEKSLTLPYQFNFYVLTNGSWTLTNKQTATPFKPPSEMLSSITYFESFYKKSYQGRVLTFLYDFSRADVDSRQAKGKIYKLTTTAYQMAILLMFNGADKITRFLINDTIGLDETSIRLPLLALIKTGIIECSEPSFKNWNNDTEFTVNSKFSSKKMKVSCNIAVQIGETKQSEGQQTVSEQEIEKERFFKLQAAIVRIMKSKKTMTHNDLTVETTTQVSKWFTPKITAIKKAIEYLIDQEYIRRTTDDNPSARKYEYMA
As to B1, the binding entry in assay [3] is on record as “binds”; in assay [1], “binds”; in assay [4], “no binding”.

Source of the values: PMC10539598.
